Measurements: article doi:10.1101/2024.01.29.24301801
Read-outs that look alike come from different tables or passages of the source. Results are given in words; binding and its absence hold for the method and conditions named. Binding seen in cells or lysates may run through a third protein. A yes stands for co-enrichment or nearness to the bait. Other partners may have been found.

The chains behind the UniProt entries cited, without tags or fusion partners. Where a name states a change or a piece, a line headed by the entry shows the natural chain unless it says otherwise.
UniProt O15379: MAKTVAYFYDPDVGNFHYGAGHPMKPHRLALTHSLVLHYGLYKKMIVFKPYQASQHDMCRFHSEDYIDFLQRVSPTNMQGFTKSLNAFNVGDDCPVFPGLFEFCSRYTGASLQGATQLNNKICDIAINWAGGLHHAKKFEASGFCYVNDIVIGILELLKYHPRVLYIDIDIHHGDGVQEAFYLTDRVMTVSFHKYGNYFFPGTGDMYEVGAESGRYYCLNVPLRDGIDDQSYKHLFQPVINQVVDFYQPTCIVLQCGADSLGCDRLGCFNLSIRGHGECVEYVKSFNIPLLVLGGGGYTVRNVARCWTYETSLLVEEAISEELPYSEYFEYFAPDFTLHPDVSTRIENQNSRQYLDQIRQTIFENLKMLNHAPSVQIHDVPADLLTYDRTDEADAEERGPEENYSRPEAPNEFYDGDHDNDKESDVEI
UniProt P55884: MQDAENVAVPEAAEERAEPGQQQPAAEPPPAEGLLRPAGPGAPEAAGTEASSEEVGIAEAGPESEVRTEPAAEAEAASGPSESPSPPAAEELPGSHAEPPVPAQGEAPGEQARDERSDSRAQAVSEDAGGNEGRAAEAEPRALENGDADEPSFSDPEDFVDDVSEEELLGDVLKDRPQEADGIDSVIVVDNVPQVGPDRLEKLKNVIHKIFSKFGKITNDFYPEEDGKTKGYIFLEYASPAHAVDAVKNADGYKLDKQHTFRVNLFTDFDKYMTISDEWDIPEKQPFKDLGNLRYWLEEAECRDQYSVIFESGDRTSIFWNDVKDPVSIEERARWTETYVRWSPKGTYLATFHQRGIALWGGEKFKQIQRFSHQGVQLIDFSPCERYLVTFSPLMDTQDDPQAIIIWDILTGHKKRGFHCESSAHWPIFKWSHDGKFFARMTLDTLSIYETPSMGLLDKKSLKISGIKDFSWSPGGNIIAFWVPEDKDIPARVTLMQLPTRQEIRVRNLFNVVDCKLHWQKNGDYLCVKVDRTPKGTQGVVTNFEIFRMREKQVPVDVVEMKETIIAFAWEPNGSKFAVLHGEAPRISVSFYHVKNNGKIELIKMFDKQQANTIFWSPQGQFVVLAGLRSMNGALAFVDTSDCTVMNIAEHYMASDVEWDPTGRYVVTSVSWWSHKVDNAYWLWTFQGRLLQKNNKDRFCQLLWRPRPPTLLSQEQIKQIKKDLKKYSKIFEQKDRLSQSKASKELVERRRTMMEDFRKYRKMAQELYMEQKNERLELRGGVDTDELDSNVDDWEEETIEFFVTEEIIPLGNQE
UniProt Q9UKL0: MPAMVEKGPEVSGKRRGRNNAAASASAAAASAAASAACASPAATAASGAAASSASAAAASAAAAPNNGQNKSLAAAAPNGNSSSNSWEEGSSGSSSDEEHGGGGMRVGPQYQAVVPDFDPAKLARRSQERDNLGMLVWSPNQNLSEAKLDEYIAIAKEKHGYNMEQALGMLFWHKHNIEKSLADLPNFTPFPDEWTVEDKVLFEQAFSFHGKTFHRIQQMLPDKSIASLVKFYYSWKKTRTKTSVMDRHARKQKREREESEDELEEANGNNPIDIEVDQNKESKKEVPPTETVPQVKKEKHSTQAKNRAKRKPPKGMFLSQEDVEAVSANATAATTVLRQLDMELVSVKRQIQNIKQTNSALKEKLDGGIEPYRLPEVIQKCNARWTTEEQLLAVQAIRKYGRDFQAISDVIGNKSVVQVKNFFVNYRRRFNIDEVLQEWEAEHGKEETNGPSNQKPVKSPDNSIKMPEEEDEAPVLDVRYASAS

What was measured:
Test in all cases: affinity purification with mass spectrometry
[1] = target: FLAG-tagged HDAC3 A110T variant (HEK293T) (human) (UniProt O15379)
[2] = target: FLAG-tagged HDAC3 G267S variant (HEK293T) (human) (UniProt O15379)
[3] = target: FLAG-tagged HDAC3 L266S variant (HEK293T) (human) (UniProt O15379)
[4] = target: FLAG-tagged HDAC3 R359C variant (HEK293T) (human) (UniProt O15379)
[5] = target: FLAG-tagged wild-type HDAC3 (HEK293T) (human) (UniProt O15379)
[6] = target: FLAG-tagged HDAC3 A110T variant (HEK293T) (human) (UniProt O15379); remark: listed apart in the source
[7] = target: FLAG-tagged HDAC3 G267S variant (HEK293T) (human) (UniProt O15379); remark: listed apart in the source
[8] = target: FLAG-tagged HDAC3 L266S variant (HEK293T) (human) (UniProt O15379); remark: listed apart in the source
[9] = target: FLAG-tagged HDAC3 R359C variant (HEK293T) (human) (UniProt O15379); remark: listed apart in the source
[10] = target: FLAG-tagged wild-type HDAC3 (HEK293T) (human) (UniProt O15379); remark: listed apart in the source

Measured: binding

EIF3B (from UniProt P55884 1-814)
binds: [1] | [2] | [3] | [4] | [5]

REST corepressor 1 (RCOR1) (from UniProt Q9UKL0 1-485)
binds: [1] | [2] | [3] | [4] | [5]

RCOR3 (from UniProt Q9P2K3 1-495)
binds: [1] | [2] | [3] | [4] | [5]

B1: GSE1 (protein, UniProt Q14687 1-1217)
chain: MKGMSHEPKSPSLGMLSTATRTTATVNPLTPSPLNGALVPSGSPATSSALSAQAAPSSSFAAALRKLAKQAEEPRGSSLSSESSPVSSPATNHSSPASTPKRVPMGPIIVPPGGHSVPSTPPVVTIAPTKTVNGVWRSESRQDAGSRSSSGGRERLIVEPPLPQEKAGGPAIPSHLLSTPYPFGLSPSSVVQDSRFPPLNLQRPVHHVVPPSTVTEDYLRSFRPYHTTDDLRMSSLPPLGLDPATAAAYYHPSYLAPHPFPHPAFRMDDSYCLSALRSPFYPIPTPGSLPPLHPSAMHLHLSGVRYPPELSHSSLAALHSERMSGLSAERLQMDEELRREREREREREREREADREREKEREREREKEREQEKEREREKERERELERQREQRAREKELLAAKALEPSFLPVAELHGLRGHATEERGKPSEQLTPTRAEKLKDAGLQAPKPVQHPLHPVPTPHHTVPSLISNHGIFSLPSSSAATALLIQRTNEEEKWLARQRRLRQEKEDRQSQVSEFRQQVLEQHLDMGRPPVPAEAEHRPESTTRPGPNRHEPGGRDPPQHFGGPPPLISPKPQLHAAPTALWNPVSLMDNTLETRRAESHSLHSHPAAFEPSRQAAVPLVKVERVFCPEKAEEGPRKREPAPLDKYQPPPPPPREGGSLEHQPFLPGPGPFLAELEKSTQTILGQQRASLPQAATFGELSGPLKPGSPYRPPVPRAPDPAYIYDEFLQQRRRLVSKLDLEERRRREAQEKGYYYDLDDSYDESDEEEVRAHLRCVAEQPPLKLDTSSEKLEFLQLFGLTTQQQKEELVAQKRRKRRRMLRERSPSPPTIQSKRQTPSPRLALSTRYSPDEMNNSPNFEEKKKFLTIFNLTHISAEKRKDKERLVEMLRAMKQKALSAAVADSLTNSPRDSPAVSLSEPATQQASLDVEKPVGVAASLSDIPKAAEPGKLEQVRPQELSRVQELAPASGEKARLSEAPGGKKSLSMLHYIRGAAPKDIPVPLSHSTNGKSKPWEPFVAEEFAHQFHESVLQSTQKALQKHKGSVAVLSAEQNHKVDTSVHYNIPELQSSSRAPPPQHNGQQEPPTARKGPPTQELDRDSEEEEEEDDEDGEDEEEVPKRKWQGIEAVFEAYQEHIEEQNLERQVLQTQCRRLEARHYSLSLTAEQLSHSVAELRSQKQKMVSERERLQAELDHLRKCLALPAMHWPRGYLKGYPR
binds: [6] | [7] | [8] | [9] | [10]
